Results deposited as PubChem BioAssay AID1224830 (NIAID, 2016)
This is a random part of about 18,000 reagents tested. About 2,900 of them (16%) were called active. 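Calls are made per well; low scores hint the gene aids the LPS response, high scores that it dampens it.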 Repeated entries: four replicate wells of each siRNA pool.

Test: 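Host factors that control LPS-induced TNF expression in human macrophages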 (primary screen)
System: human THP-1 monocytic leukaemia cells, TNF dual-luciferase reporter clone, PMA-differentiated to macrophage-like cells
Reagent: siRNA pool against human genes, 50 nM
Time to read-out: LPS for 4 h, given about 3 days after siRNA transfection
Treatment: bacterial LPS (TLR4 ligand), 10 ng/ml
Read-out: 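TNF firefly reporter luminescence divided by renilla, normalised to the plate median, then turned into a robust z-score for each replicate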
Scale: TNF reporter robust z-score: higher = stronger TNF reporter response to LPS
Hit rule: 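a well is active when its z-score exceeds 2.8 or falls below -1.5; control wells carry no call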

no.	target	TNF reporter robust z-score	outcome
1	HPCAL1	-1.45	inactive
2	HPCAL1	-0.92	inactive
3	HPCAL1	-0.37	inactive
4	HPCAL1	0.24	inactive
5	LHPP	-0.39	inactive
6	LHPP	1.05	inactive
7	LHPP	1.54	inactive
8	LHPP	0.39	inactive
9	PLEKHM1	-0.41	inactive
10	PLEKHM1	0.37	inactive
11	PLEKHM1	-1.02	inactive
12	PLEKHM1	-0.89	inactive
13	ANPEP	0.12	inactive
14	ANPEP	-0.62	inactive
15	ANPEP	0.19	inactive
16	ANPEP	0.35	inactive
17	MUS81	0.27	inactive
18	MUS81	0.32	inactive
19	MUS81	0.76	inactive
20	MUS81	1.09	inactive
21	TMTC2	0.02	inactive
22	TMTC2	-0.07	inactive
23	TMTC2	-0.02	inactive
24	TMTC2	-0.64	inactive

Continued.
no.	target	TNF reporter robust z-score	outcome
25	ZNF287	-0.39	inactive
26	ZNF287	-0.17	inactive
27	ZNF287	-0.51	inactive
28	ZNF287	-0.54	inactive
29	H2BC9	1.95	inactive
30	H2BC9	1.74	inactive
31	H2BC9	-0.2	inactive
32	H2BC9	1.34	inactive
33	STOM	-0.84	inactive
34	STOM	-0.8	inactive
35	STOM	-0.95	inactive
36	STOM	-0.64	inactive
37	CYP8B1	1.35	inactive
38	CYP8B1	1.85	inactive
39	CYP8B1	0.85	inactive
40	CYP8B1	-0.15	inactive
41	CACNG2	0.3	inactive
42	CACNG2	-0.11	inactive
43	CACNG2	-0.8	inactive
44	CACNG2	-0.15	inactive
45	ATG9B	-0.9	inactive
46	ATG9B	-0.75	inactive
47	ATG9B	-1.14	inactive
48	ATG9B	-0.16	inactive
